In US11872270B2, “A*03 restricted peptides for use in immunotherapy against cancers and related methods” (Immatics Biotechnologies GmbH, priority 2018, dated 2024):
For some of these results: Expression values are those of the mRNA of the gene that encodes the peptide; a gene is named only where it was looked up.

Columns and labels:
[1] = test system: HLA molecules from shock-frozen tissue samples; test: Identification and quantitation of tumor associated peptides presented on the cell surface (HLA immunoprecipitation, LC-MS); parameters: species or system human
[2] = test system: source genes (mRNA) in tumor and normal tissue; test: Expression profiling of genes encoding the peptides (RNAseq); parameters: species or system human
[3] = cancer entities on which the peptide was detected by LC-MS of HLA ligands
[4] = tumor entities in which the source gene is highly over-expressed vs panel of normal tissues (Table 9a)
[5] = tumor entities in which the source gene is over-expressed vs panel of normal tissues (Table 9a)

12: peptide found in CHRNA9 (gene looked up) (KVLTRNIEY; listed as Homo sapiens) [compound 12]
Peptide Presentation on cancer entities [1, 3]: GBC
Gene Expression in tumor samples: highly over-expressed (++) [2, 4]: GBM, HNSCC, SCLC
Gene Expression in tumor samples: over-expressed (+) [2, 5]: MEL, NSCLCadeno, NSCLCsquam, OC, OSCAR, UBC, UEC
Gene Expression in tumor samples: very highly over-expressed (+++) ([2]; tumor entities in which the source gene is very highly over-expressed vs panel of normal tissues (Table 9a)): NSCL; Cother

163: peptide found in GPR143 (gene looked up) (MLYYPSVSR; listed as Homo sapiens) [compound 163]
Peptide Presentation on cancer entities [1, 3]: MEL
Gene Expression in tumor samples: highly over-expressed (++) [2, 4]: MEL

70: peptide found in GPR143 (gene looked up) (VTAVASLLK; listed as Homo sapiens) [compound 70]
Peptide Presentation on cancer entities [1, 3]: MEL
Gene Expression in tumor samples: highly over-expressed (++) [2, 4]: MEL

35: peptide found in NOTUM (gene looked up) (VLLLLSLLH; listed as Homo sapiens) [compound 35]
Peptide Presentation on cancer entities [1, 3]: NSCLCadeno
Gene Expression in tumor samples: highly over-expressed (++) [2, 4]: HCC
Gene Expression in tumor samples: over-expressed (+) [2, 5]: GBC, SCLC, UEC

212: peptide found in NUP155 (gene looked up) (RTIDRSVFK; listed as Homo sapiens) [compound 212]
Peptide Presentation on cancer entities [1, 3]: MEL, UEC
Gene Expression in tumor samples: over-expressed (+) [2, 5]: NSCLCsquam, SCLC

76: peptide found in GPR143 (gene looked up) (IINESLLFY; listed as Homo sapiens) [compound 76]
Peptide Presentation on cancer entities [1, 3]: BRCA, CRC, GBC, MEL, NSCLCadeno, RCC, UEC
Gene Expression in tumor samples: highly over-expressed (++) [2, 4]: MEL

184: peptide found in MPL (gene looked up) (KVLEPPLGAR; listed as Homo sapiens) [compound 184]
Peptide Presentation on cancer entities [1, 3]: AML, CLL
Gene Expression in tumor samples: over-expressed (+) [2, 5]: AML

107: peptide found in PLA2G2D (gene looked up) (ILNLNKMVK; listed as Homo sapiens) [compound 107]
Peptide Presentation on cancer entities [1, 3]: NHL
Gene Expression in tumor samples: highly over-expressed (++) [2, 4]: NHL
Gene Expression in tumor samples: over-expressed (+) [2, 5]: MEL, NSCLCother

115: peptide found in NMUR2 (gene looked up) (AILHPFRAK; listed as Homo sapiens) [compound 115]
Peptide Presentation on cancer entities [1, 3]: UEC
Gene Expression in tumor samples: over-expressed (+) [2, 5]: PACA, UEC

271: peptide found in CCL22 (gene looked up) (RLPLRVVKH; listed as Homo sapiens) [compound 271]
Peptide Presentation on cancer entities ([1]; cancer entities on which the peptide was found presented (Table 8b)): NHL
Gene Expression in tumor samples: highly over-expressed (++) ([2]; tumor entities in which the source gene is highly over-expressed vs panel of normal tissues (Table 9b)): NHL
Gene Expression in tumor samples: over-expressed (+) ([2]; tumor entities in which the source gene is over-expressed vs panel of normal tissues (Table 9b)): NSCLCadeno

205: peptide found in AR (gene looked up) (RVYPRPPSK; listed as Homo sapiens) [compound 205]
Peptide Presentation on cancer entities [1, 3]: CCC, HCC, UEC
Gene Expression in tumor samples: over-expressed (+) [2, 5]: BRCA, HCC, PRCA

26: peptide found in PGR (gene looked up) (QLGYQAAVLK; listed as Homo sapiens) [compound 26]
Peptide Presentation on cancer entities [1, 3]: GBM
Gene Expression in tumor samples: highly over-expressed (++) [2, 4]: UEC
Gene Expression in tumor samples: over-expressed (+) [2, 5]: BRCA

189: peptide found in FOXP3 (gene looked up) (KVFEEPEDFLK; listed as Homo sapiens) [compound 189]
Peptide Presentation on cancer entities [1, 3]: BRCA, CCC, CRC, GBC, GC, HCC, HNSCC, MEL, NHL, NSCLCadeno, NSCLCsquam, OSCAR, PACA, PRCA, RCC, SCLC, UBC, UEC
Gene Expression in tumor samples: over-expressed (+) [2, 5]: NHL

178: peptide found in LPAR3 (gene looked up) (RIYVYVKRK; listed as Homo sapiens) [compound 178]
Peptide Presentation on cancer entities [1, 3]: AML, HNSCC, OSCAR, UBC, UEC
Gene Expression in tumor samples: over-expressed (+) [2, 5]: HNSCC, OC, OSCAR, PRCA
